Reference: the supplement of paper PMC10060354, “Discovery of a small molecule ligand of FRS2 that inhibits invasion and tumor growth” (Cellular Oncology, 2022)
Many values rest on one well or one pass, so single values are uncertain.

Chains of the proteins cited; added tags and fusions are not shown. Lines headed by an entry give the natural chain unless they say otherwise; changes in a name come on top.
UniProt P26006: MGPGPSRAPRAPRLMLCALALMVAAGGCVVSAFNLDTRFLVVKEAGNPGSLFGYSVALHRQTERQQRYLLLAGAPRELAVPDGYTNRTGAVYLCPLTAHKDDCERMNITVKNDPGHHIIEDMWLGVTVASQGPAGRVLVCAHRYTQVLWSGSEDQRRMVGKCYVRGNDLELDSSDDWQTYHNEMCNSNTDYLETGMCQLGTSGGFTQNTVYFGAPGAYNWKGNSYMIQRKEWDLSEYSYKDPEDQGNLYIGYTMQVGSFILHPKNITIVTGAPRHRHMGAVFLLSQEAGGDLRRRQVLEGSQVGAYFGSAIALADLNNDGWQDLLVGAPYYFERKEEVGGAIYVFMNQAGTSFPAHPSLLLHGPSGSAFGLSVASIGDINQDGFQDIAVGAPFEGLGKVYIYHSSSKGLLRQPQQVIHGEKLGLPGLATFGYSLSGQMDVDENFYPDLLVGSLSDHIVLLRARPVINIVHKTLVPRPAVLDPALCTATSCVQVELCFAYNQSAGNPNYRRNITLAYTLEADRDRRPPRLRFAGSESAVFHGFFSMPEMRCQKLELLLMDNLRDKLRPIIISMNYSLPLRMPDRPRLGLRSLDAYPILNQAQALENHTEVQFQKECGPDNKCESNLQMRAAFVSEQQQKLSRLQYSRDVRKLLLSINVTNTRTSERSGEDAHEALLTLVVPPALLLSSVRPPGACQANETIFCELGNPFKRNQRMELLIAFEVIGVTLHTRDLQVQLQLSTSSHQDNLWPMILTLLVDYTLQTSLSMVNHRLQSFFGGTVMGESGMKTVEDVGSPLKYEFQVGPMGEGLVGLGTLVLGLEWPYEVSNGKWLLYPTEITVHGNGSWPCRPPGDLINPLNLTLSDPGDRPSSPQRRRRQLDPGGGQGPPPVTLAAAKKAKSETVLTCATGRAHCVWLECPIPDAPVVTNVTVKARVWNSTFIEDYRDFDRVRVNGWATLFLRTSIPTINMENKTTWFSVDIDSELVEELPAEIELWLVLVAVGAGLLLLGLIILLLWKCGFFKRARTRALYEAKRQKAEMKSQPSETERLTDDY
UniProt Q8TDX6: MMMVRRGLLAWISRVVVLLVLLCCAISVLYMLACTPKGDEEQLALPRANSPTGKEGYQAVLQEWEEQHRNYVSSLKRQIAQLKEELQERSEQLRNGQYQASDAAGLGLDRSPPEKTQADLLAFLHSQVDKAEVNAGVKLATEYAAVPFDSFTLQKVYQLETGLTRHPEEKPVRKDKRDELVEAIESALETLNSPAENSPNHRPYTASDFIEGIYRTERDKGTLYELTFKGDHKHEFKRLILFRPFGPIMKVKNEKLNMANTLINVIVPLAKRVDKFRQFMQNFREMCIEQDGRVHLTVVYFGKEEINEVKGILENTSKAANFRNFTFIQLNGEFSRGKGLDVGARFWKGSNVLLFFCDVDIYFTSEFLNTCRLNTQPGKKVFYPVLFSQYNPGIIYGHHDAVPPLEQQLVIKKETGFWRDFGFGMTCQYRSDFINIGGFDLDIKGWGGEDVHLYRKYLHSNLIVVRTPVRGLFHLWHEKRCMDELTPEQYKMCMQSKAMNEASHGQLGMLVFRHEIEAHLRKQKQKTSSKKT
UniProt O15382: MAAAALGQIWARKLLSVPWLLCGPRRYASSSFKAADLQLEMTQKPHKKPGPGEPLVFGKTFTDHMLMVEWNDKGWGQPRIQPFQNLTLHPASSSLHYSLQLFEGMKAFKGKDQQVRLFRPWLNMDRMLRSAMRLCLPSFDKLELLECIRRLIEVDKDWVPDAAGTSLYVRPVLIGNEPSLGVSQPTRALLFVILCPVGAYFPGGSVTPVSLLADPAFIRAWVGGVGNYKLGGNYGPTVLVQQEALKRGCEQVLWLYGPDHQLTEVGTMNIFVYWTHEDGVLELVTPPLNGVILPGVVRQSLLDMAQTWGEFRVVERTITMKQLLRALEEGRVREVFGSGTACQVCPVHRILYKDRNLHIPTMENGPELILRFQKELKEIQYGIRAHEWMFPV
UniProt Q641Q2, whole entry: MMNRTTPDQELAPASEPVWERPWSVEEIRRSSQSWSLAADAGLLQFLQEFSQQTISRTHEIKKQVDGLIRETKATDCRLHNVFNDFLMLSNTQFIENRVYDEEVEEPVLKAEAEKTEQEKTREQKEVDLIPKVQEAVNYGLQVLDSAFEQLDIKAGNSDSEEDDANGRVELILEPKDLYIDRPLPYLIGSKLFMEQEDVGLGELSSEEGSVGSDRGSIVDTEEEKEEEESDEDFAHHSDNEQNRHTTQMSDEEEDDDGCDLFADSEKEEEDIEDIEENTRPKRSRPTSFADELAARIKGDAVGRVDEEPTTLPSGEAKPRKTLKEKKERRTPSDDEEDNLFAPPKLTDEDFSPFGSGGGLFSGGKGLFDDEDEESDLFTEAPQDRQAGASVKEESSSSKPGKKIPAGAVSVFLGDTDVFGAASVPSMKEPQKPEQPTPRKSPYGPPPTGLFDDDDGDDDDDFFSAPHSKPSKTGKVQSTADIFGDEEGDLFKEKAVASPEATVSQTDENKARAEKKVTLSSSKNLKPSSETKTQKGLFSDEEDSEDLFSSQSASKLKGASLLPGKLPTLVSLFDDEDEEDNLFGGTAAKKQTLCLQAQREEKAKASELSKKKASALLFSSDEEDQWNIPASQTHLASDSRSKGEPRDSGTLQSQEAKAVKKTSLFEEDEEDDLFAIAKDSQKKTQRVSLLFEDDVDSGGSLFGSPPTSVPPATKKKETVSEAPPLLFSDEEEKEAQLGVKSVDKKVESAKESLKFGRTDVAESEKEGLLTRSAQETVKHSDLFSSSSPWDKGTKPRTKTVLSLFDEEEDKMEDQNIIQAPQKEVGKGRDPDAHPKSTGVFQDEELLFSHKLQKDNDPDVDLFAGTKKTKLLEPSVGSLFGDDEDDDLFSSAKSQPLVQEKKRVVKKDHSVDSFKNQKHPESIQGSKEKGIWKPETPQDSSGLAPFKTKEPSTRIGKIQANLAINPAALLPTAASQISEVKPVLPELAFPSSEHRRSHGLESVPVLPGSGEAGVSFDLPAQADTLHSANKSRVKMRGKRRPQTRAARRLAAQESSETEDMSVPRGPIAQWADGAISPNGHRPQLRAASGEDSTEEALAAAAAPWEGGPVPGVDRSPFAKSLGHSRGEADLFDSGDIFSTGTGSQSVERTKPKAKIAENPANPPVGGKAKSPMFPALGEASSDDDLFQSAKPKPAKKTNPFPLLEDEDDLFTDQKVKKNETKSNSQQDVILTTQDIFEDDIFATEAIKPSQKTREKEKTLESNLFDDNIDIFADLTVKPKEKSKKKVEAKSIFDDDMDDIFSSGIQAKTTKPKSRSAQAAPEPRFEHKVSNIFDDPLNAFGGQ
UniProt Q9NX74: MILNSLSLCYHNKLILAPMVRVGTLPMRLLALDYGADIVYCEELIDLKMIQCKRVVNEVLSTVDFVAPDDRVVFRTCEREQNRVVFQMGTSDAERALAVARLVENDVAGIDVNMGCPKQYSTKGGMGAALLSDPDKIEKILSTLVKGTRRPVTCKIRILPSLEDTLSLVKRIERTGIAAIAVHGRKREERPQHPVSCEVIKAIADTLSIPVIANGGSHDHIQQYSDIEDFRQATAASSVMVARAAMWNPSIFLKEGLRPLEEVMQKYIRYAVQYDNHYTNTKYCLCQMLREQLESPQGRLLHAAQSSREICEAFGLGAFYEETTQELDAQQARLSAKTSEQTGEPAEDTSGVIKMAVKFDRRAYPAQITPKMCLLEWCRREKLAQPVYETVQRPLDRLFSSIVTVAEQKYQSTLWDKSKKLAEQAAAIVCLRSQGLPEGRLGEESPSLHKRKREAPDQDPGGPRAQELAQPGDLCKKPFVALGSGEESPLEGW
UniProt P31947: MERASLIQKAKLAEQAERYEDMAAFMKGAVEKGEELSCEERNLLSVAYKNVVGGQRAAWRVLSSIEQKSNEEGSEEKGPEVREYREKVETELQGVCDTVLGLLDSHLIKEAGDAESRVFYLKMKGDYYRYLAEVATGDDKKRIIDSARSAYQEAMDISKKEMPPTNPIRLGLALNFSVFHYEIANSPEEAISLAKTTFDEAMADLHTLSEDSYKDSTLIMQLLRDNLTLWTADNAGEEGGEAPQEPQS
UniProt Q92696: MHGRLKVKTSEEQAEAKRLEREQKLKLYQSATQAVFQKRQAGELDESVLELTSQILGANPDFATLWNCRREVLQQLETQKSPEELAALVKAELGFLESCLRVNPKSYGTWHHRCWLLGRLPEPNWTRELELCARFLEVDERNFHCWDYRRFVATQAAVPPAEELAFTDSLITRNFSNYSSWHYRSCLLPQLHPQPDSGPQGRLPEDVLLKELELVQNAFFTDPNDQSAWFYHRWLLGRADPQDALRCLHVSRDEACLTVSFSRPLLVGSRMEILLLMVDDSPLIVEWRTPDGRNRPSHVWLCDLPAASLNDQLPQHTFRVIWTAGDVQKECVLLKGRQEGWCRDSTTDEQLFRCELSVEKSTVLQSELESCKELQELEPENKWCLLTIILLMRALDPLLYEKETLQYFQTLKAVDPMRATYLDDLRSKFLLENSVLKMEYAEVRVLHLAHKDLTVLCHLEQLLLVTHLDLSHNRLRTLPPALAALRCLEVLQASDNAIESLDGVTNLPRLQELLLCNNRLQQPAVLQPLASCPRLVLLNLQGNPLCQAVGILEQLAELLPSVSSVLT
UniProt Q8IWA0: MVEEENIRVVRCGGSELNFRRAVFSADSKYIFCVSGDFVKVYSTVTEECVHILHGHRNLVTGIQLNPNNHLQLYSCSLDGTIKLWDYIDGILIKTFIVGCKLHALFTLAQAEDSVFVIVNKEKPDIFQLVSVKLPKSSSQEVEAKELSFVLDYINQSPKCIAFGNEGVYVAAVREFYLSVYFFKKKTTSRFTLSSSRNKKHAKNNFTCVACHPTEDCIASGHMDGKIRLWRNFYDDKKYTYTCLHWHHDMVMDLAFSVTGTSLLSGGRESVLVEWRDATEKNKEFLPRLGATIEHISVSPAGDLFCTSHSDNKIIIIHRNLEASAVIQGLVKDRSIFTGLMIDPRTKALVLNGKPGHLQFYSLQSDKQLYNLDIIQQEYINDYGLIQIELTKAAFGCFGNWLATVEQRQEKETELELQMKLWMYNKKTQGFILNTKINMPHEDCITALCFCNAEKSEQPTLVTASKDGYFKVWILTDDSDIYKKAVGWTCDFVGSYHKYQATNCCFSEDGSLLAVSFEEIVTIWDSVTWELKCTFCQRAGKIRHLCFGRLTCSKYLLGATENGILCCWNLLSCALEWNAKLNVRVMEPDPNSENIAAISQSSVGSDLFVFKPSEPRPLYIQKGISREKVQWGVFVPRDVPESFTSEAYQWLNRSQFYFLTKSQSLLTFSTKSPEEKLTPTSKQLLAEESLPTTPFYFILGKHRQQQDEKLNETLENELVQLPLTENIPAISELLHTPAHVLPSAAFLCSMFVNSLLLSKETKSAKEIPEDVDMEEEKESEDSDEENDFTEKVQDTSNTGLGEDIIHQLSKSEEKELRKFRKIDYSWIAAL
UniProt Q9Y4F1: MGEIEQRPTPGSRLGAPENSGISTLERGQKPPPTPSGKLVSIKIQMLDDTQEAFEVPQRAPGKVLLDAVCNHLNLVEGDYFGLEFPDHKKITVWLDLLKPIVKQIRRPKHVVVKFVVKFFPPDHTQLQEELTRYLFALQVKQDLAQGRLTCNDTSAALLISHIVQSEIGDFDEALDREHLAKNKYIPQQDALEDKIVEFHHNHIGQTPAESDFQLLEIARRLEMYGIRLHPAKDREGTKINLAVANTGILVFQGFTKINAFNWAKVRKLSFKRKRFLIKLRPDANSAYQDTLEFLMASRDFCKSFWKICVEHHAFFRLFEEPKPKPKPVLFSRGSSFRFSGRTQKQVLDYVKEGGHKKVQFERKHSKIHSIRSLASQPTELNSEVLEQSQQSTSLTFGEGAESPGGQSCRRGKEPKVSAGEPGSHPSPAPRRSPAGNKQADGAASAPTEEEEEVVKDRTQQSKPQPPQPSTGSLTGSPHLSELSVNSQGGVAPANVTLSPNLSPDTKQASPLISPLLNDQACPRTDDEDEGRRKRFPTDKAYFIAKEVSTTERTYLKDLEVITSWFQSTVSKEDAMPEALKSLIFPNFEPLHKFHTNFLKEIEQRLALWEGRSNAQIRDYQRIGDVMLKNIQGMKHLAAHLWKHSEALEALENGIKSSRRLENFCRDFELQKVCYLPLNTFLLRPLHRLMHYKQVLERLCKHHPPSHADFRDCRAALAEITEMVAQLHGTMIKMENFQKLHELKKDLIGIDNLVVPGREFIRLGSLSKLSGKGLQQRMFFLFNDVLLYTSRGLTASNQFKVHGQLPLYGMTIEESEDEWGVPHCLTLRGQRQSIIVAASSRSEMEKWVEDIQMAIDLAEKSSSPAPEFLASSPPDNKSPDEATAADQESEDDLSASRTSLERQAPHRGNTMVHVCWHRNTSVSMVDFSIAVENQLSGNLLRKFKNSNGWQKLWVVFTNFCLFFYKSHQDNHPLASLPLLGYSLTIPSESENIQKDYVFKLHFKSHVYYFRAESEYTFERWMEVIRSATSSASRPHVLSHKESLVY
UniProt P04080: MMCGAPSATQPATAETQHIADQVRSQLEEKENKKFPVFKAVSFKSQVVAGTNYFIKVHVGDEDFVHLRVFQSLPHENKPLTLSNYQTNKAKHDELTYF

Compound: [O-][N+](C(C1=C(C(O)=C2)NC(C(C=C3)=CC=C3Cl)C4C1C=CC4)=C2Cl)=O
Assay: melting temperature shift (compound 7 minus DMSO); higher = compound stabilises the protein
Settings: 10 µM
Experimental: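 Thermal proteome profiling (TMT mass spectrometry) in intact DAOY medulloblastoma cells or DAOY lysates treated with 10 µM compound 7 or DMSO, heated at 10 temperatures from 40.5 to 73.8 °C for 3 min. Melting curves were fitted with the Bioconductor TPP package, and the melting point difference between compound and vehicle is reported per protein (single curve per condition).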

[1] = system: DAOY cell lysate, treatment time: 20 min, 4 °C
[2] = system: intact DAOY cells, treatment time: 90 min, 37 °C

| Target | melting temperature shift [1] | melting temperature shift [2] |
| --- | --- | --- |
| KARS (UniProt Q15046) | 0.0991 °C | -0.448 °C |
| PHLDB2 (UniProt Q86SQ0) | -0.236 °C | -1.03 °C |
| ITGA3 (UniProt P26006) | 2.97 °C | – |
| FERMT2 (UniProt Q96AC1) | -0.733 °C | -0.414 °C |
| SCFD2 (UniProt Q8WU76) | 1.43 °C | – |
| PPP2CA (UniProt P67775) | -0.879 °C | 1.28 °C |
| LAMTOR2 (UniProt Q9Y2Q5) | 4.42 °C | 2.49 °C |
| UNG (UniProt P13051) | -1.53 °C | -0.777 °C |
| TARDBP (UniProt Q13148) | – | -0.0878 °C |
| SERPINB1 (UniProt P30740) | -0.255 °C | 0.547 °C |
| UniProt Q8TDX6 | – | -1.59 °C |
| PAK4 (UniProt O96013) | 0.171 °C | -2.14 °C |
| DDX6 (UniProt P26196) | -0.0603 °C | 0.205 °C |
| PRKACG (UniProt P22612) | – | -0.602 °C |
| TJP2 (UniProt Q9UDY2) | -0.114 °C | -0.782 °C |
| ARGLU1 (UniProt Q9NWB6) | – | -0.18 °C |
| BCAT2 (UniProt O15382) | 0.712 °C | 1.18 °C |
| DNAJC25 (UniProt Q9H1X3) | 0.601 °C | – |
| CCDC93 (UniProt Q567U6) | -0.684 °C | -0.207 °C |
| KPNA3 (UniProt O00505) | -0.275 °C | 0.146 °C |
| ERP44 (UniProt Q9BS26) | 0.277 °C | 1.02 °C |
| FAM21A (UniProt Q641Q2) | 0.542 °C | 0.277 °C |

| Target | melting temperature shift [1] | melting temperature shift [2] |
| --- | --- | --- |
| VPS33A (UniProt Q96AX1) | 0.645 °C | 0.326 °C |
| PPA1 (UniProt Q15181) | – | -0.245 °C |
| UniProt P35227 | – | 1.3 °C |
| HNRNPA0 (UniProt Q13151) | 1.78 °C | -1.09 °C |
| UPF1 (UniProt Q92900) | -0.299 °C | 0.163 °C |
| UniProt P21980 | -0.626 °C | 0.0299 °C |
| HSPB8 (UniProt Q9UJY1) | – | 2.67 °C |
| SRI (UniProt P30626) | -1.03 °C | 0.976 °C |
| PPP2R5D (UniProt Q14738) | -0.382 °C | -0.455 °C |
| UniProt Q5JQC4 | -0.755 °C | 0.00653 °C |
| UniProt Q9BX67 | 2.26 °C | – |
| UniProt Q9BQ51 | – | -1.19 °C |
| PDIA4 (UniProt P13667) | 0.586 °C | 0.649 °C |
| ATG4B (UniProt Q9Y4P1) | -1.31 °C | 0.687 °C |
| RPS8 (UniProt P62241) | -0.153 °C | -0.914 °C |
| UniProt Q99719 | – | -1.04 °C |
| UniProt P32456 | -0.864 °C | 0.181 °C |
| DDAH1 (UniProt O94760) | -0.955 °C | 1.01 °C |
| GLTP (UniProt Q9NZD2) | -0.273 °C | -0.162 °C |
| ASF1A (UniProt Q9Y294) | -0.805 °C | 1.15 °C |
| DMPK (UniProt Q09013) | – | 1.39 °C |
| DUS2 (UniProt Q9NX74) | -0.522 °C | -0.97 °C |

| Target | melting temperature shift [1] | melting temperature shift [2] |
| --- | --- | --- |
| EXTL2 (UniProt Q9UBQ6) | 0.433 °C | – |
| UniProt A6NKL6 | 2.01 °C | – |
| SFN (UniProt P31947) | -2.59 °C | – |
| SMARCAD1 (UniProt Q9H4L7) | -0.393 °C | -1.9 °C |
| UniProt O60739 | – | 0.107 °C |
| UniProt O60831 | 1.4 °C | – |
| RABGGTA (UniProt Q92696) | -0.349 °C | 0.357 °C |
| ACTN4 (UniProt O43707) | -0.0408 °C | 0.906 °C |
| ATP11C (UniProt Q8NB49) | 1.6 °C | 2.34 °C |
| WDR75 (UniProt Q8IWA0) | 0.758 °C | – |
| USP15 (UniProt Q9Y4E8) | -0.9 °C | 0.649 °C |
| HSPA8 (UniProt P11142) | -0.172 °C | -0.0517 °C |
| DNTTIP2 (UniProt Q5QJE6) | 1.21 °C | 0.779 °C |
| PSMA1 (UniProt P25786) | -0.0317 °C | -0.75 °C |
| COPS4 (UniProt Q9BT78) | -0.555 °C | -0.0254 °C |
| EIF2S1 (UniProt P05198) | -0.327 °C | -0.103 °C |
| FAM129A (UniProt Q9BZQ8) | 0.532 °C | 0.0635 °C |
| FARP1 (UniProt Q9Y4F1) | 1.74 °C | -1.07 °C |
| NEGR1 (UniProt Q7Z3B1) | 4.75 °C | 2.28 °C |
| PPM1F (UniProt P49593) | -0.975 °C | -0.0855 °C |
| UniProt Q3LIE5 | -1.7 °C | – |
| PIK3R2 (UniProt O00459) | 0.586 °C | 2.66 °C |

| Target | melting temperature shift [1] | melting temperature shift [2] |
| --- | --- | --- |
| UniProt P00352 | – | -0.087 °C |
| SNRPB2 (UniProt P08579) | 0.525 °C | 0.526 °C |
| HIP1R (UniProt O75146) | 1.47 °C | -0.624 °C |
| UniProt Q7Z745 | – | -2.21 °C |
| RNH1 (UniProt P13489) | -0.23 °C | 0.311 °C |
| LTN1 (UniProt O94822) | 0.138 °C | -0.276 °C |
| UniProt Q9UQ16 | -0.614 °C | – |
| ATP5H (UniProt O75947) | 0.813 °C | -2.08 °C |
| XPO1 (UniProt O14980) | -0.783 °C | -1.35 °C |
| CSTB (UniProt P04080) | -2.26 °C | -0.213 °C |
| NECAP1 (UniProt Q8NC96) | -0.0211 °C | -0.293 °C |
| TRAF6 (UniProt Q9Y4K3) | – | 0.96 °C |
| EIF3B (UniProt P55884) | -0.259 °C | 0.0377 °C |
| SUCLG2 (UniProt Q96I99) | 0.22 °C | -1.86 °C |
| API5 (UniProt Q9BZZ5) | 0.0758 °C | -0.00171 °C |
| CLP1 (UniProt Q92989) | 1.61 °C | – |
| TLE2 (UniProt Q04725) | – | 0.0556 °C |
| CDC26 (UniProt Q8NHZ8) | -0.0279 °C | – |
| ATP6V1C1 (UniProt P21283) | -0.43 °C | 0.939 °C |

Single records (already shown). Order of values: melting temperature shift [1] | melting temperature shift [2]
API5 (UniProt Q9BZZ5) is listed as 0.0758 °C | -0.00171 °C
UniProt P00352 is listed as – | -0.087 °C
SNRPB2 (UniProt P08579) is listed as 0.525 °C | 0.526 °C
RNH1 (UniProt P13489) is listed as -0.23 °C | 0.311 °C
